Experimental data from patent US20210348164A1, “ENDOGENOUS CYTOPLASMIC ALU COMPLEMENTARY DNA IN AGE-RELATED MACULAR DEGENERATION” (University of Virginia Patent Foundation, priority 2018, published 2021).
At least one compound was matched to its structure with a doubt left.

Tested on: NLRP3 inflammasome
Experiment: Caspase-1 activation in bone marrow-derived macrophages treated with LPS and ATP (immunoblot)
Type: cell-based
Conditions: primary mouse BMDM; LPS and ATP stimulation
Procedure: Western blotting. Cells and tissue were homogenized in RIPA buffer (Sigma-Aldrich) with protease and phosphatase inhibitors (Roche) or lysed directly in Laemmli buffer. Protein concentration was determined using Pierce BCA Protein Assay Kit (Thermo Fisher Scientific). Equal quantities of protein (10-50 μg) prepared in Laemmli buffer were resolved by SDS-PAGE on NOVEX® Tris-Glycine Gels (Invitrogen), or MINI-PROTEAN® TGX™ Precast Protein Gels (Bio-Rad Laboratories, Inc., Hercules, Calif., United States of America) and transferred onto Immobilon-FL PVDF membranes (0.2 or 0.45 μm; MilliporeSigma, Burlington, Mass., United States of America). The transferred membranes were blocked in ODYSSEY® Blocking Buffer (PBS) for 1 hour at room temperature and then incubated with primary antibody at 4° C. overnight. Immunoreactive bands were visualized using species-specific secondary antibodies conjugated with IRDYE®. The blot images were captured on ODYSSEY® imaging systems. […]

## Nc1ccn([C@@H]2CS[C@H](CO)O2)c(=O)n1 [3TC, (−)-b-L-2′,3′-dideoxy-3′-thiacytidine]
  caspase-1 activation / NLRP3 inflammasome activation: reduction thereof
